Test results from patent US7118899B2, “Detection of transmembrane potentials by optical methods” (The Regents of the University of California, priority 2001, dated 2006).

Test system: L-M(TK^−) cells
Experiment: Oxonol displacement currents (membrane translocation), whole-cell voltage clamp
Type: cell-based
Description: All cells were grown and handled like L-M(TK^−) except where noted. L-M(TK^−) cells were grown in Dulbecco's Modified Eagle Media (Gibco; Grand Island, N.Y.) with 10% fetal bovine serum (FBS) and 1% penicillin streptomycin (PS) (Gemini; Calabasas, Calif.). B104 cells were differentiated with 1 μM retinoic acid for 5 days prior to use. The cells were plated on glass coverslips at least one day before use. The adherent cells were washed and maintained in 2.5–3.0 mL of HBSS with 1 g/L glucose and 20 mM HEPES at pH 7.4. A freshly prepared 75 μM aqueous solution of the appropriate oxonol was made prior to an experiment from a DMSO stock solution. The cells were stained by mixing 100 μL of the oxonol solution with 750 μL of the bath and then adding the diluted solution to the cells. The dye was left for 30–40 minutes at a bath concentration of […]. 1.5 mM β-cyclodextrin in the bath solution was necessary for cell loading of DiSBA-C6-(3). The butyl and ethyl derivatives were water-soluble enough to load cells with out β-cyclodextrin complexation. DiSBA-C10-(3) was loaded in a pH 7.4 solution containing 290 mM sucrose and 10 mM HEPES, 364 mOsm, for 10 min at a bath concentration of […]. DiSBA-C10-(3) labeling was quenched by replacing the bath with HBSS solution. The cells were stained with 15 µg/mL of FL-WGA for 15 minutes. The B104 cells required a 125 µg/mL bath concentration to give satisfactory lectin staining. The excess dyes were removed with repeated washes with HBSS. If the excess ethyl or butyl oxonol derivatives were left in the bath, slow currents and fluorescence changes due to redistribution of the dyes into the cell were observed during depolarizations greater than 1 s. The cardiac myocytes [Henderson, S. A., Spencer, M., Sen, A., Kumar, C., Siddiqui, M. A. Q., and Chien, K. R. 1989. Structure organization, and expression of the rat cardiac myosin light chain-2 gene. J. Biol. Chem. 264:18142–18146] were a gift of Professor Kenneth Chien, UCSD. The Jurkat lymphocyte suspensions were grown in RPMI media with 5% heat inactivated FBS and 1% PS. 15–20 mL aliquots of the cellular suspension were washed three times before and after dye staining by centrifugation at 100×g for 4 minutes followed by additions of fresh HBSS.
Patch clamp recording were made using an Axopatch 1-D amplifier equipped with a CV-4 headstage from Axon Instruments (Foster City, Calif.). The data were digitized and stored using the PCLAMP software. […]
12.5 ms long voltage steps at 15 mV increments were applied to the cell, from a holding potential of −70 mV. […] Furthermore, the induced capacitance dq/dV from the oxonol movement is calculated to be ˜5 pF for 100 mV depolarization. […]

CCCCCCN1C(=O)C(=CC=Cc2c(O)n(CCCCCC)c(=S)n(CCCCCC)c2=O)C(=O)N(CCCCCC)C1=S [DiSBA-C6-(3), (1,3-dihexyl-2-thiobarbiturate)trimethine oxonol]
induced capacitance dq/dV from the oxonol movement (100 mV depolarization): ~5 pF
Vh, membrane potential with equal numbers of ions in each well (fit to Eq. 1, FIG. 4): −3.8±1.5 mV
β, fraction of the externally applied potential felt by the translocating ion (fit to Eq. 1, FIG. 4): 0.42±0.02
qmax, total charge in each energy well (fit to Eq. 1, FIG. 4, step voltage changes from −30 mV holding potential): 4770±140 fC
